Reference: the supplement of paper PMC10849652
The other results are listed elsewhere or left out.

Amino acid sequences for entries named in this document (tags omitted). A change or cut given only in a name is not applied to a line headed by its entry.
UniProt O94888: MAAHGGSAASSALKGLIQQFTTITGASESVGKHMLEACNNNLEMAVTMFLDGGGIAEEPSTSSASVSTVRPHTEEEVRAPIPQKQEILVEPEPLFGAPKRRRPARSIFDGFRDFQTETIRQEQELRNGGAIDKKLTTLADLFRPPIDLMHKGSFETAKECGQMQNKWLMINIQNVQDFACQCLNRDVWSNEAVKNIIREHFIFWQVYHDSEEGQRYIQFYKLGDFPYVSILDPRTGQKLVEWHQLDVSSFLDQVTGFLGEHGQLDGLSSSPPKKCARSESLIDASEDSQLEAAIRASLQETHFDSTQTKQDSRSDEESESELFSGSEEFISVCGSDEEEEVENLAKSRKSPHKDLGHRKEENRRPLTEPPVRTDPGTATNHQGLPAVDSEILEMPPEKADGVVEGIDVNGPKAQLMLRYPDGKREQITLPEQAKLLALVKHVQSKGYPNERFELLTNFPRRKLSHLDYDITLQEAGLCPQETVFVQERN
UniProt Q92575: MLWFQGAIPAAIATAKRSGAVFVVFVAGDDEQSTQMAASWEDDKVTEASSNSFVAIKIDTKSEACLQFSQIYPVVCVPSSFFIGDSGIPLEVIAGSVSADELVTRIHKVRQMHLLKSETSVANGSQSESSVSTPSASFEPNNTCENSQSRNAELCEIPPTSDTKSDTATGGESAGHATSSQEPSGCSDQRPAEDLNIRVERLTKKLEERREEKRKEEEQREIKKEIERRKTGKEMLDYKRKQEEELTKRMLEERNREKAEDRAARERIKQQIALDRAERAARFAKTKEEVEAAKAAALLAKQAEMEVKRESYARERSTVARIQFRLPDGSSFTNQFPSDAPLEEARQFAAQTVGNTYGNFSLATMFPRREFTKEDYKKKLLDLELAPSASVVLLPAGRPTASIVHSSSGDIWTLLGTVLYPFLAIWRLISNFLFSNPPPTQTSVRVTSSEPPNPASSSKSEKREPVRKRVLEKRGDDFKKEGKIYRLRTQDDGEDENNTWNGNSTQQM
UniProt Q8TAA9: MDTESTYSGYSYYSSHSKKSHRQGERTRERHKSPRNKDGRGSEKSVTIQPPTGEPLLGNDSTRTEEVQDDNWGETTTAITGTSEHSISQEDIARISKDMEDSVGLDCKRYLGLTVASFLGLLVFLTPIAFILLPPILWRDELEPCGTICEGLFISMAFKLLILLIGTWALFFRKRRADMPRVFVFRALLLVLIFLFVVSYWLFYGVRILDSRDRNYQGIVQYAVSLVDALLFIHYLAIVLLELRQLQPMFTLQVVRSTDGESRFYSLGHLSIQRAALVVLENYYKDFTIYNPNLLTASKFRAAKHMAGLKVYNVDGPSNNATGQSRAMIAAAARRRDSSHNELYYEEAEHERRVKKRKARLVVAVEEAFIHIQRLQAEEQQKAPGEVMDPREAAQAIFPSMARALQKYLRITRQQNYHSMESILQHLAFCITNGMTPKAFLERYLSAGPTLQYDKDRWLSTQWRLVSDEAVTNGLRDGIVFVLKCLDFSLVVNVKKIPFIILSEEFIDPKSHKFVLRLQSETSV
UniProt Q16851: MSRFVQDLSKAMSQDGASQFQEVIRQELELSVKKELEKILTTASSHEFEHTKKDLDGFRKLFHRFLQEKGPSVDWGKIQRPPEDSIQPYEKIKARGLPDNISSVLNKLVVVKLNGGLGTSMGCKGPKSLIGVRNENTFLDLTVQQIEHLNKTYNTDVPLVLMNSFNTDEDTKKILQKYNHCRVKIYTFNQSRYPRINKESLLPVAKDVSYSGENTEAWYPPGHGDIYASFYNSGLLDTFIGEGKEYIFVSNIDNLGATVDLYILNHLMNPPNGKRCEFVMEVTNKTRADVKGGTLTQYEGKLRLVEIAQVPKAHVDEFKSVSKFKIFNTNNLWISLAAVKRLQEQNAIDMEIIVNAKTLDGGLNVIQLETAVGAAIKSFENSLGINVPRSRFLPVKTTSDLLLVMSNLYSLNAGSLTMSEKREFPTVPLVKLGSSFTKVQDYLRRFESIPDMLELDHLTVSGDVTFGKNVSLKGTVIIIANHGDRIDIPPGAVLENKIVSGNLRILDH
UniProt P31930: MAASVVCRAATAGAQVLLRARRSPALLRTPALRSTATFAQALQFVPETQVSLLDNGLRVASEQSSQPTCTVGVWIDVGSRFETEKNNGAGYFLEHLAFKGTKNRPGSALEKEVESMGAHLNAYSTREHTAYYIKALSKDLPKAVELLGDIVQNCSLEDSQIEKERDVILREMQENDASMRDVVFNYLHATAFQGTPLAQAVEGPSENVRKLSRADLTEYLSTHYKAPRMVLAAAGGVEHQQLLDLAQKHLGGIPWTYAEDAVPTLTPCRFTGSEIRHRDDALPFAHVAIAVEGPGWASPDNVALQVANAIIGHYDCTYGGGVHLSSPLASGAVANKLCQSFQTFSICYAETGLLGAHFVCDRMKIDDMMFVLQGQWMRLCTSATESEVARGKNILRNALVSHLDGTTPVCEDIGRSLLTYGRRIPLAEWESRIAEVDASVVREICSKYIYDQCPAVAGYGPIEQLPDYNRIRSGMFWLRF
UniProt Q9NRR5, whole entry, looked up: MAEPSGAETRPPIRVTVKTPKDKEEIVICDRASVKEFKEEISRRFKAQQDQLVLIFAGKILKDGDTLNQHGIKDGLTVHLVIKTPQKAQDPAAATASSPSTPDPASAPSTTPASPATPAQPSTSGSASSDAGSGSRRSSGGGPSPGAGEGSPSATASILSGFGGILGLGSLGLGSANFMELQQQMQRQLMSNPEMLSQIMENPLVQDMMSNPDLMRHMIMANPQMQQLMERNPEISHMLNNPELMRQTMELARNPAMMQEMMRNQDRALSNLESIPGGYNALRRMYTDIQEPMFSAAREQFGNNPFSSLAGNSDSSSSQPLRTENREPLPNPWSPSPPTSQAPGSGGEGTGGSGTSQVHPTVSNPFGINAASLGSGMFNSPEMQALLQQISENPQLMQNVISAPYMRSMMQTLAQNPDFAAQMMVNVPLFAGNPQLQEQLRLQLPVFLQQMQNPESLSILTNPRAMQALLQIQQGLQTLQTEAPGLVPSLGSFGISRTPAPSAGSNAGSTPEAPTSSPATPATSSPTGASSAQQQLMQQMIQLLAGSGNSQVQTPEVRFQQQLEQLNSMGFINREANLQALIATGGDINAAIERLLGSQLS
UniProt O75379: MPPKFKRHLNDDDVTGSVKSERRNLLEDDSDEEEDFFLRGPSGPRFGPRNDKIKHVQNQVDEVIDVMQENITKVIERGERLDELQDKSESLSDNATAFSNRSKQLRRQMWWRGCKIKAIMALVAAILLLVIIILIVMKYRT
UniProt O95292, whole entry, looked up: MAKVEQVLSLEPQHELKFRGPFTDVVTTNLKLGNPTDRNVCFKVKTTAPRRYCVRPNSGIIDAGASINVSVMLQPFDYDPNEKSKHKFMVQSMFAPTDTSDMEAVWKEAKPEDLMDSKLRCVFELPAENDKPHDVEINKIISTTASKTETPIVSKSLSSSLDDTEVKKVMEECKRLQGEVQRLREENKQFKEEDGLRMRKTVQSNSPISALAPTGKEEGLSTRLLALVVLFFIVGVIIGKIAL
UniProt Q9P2Y5: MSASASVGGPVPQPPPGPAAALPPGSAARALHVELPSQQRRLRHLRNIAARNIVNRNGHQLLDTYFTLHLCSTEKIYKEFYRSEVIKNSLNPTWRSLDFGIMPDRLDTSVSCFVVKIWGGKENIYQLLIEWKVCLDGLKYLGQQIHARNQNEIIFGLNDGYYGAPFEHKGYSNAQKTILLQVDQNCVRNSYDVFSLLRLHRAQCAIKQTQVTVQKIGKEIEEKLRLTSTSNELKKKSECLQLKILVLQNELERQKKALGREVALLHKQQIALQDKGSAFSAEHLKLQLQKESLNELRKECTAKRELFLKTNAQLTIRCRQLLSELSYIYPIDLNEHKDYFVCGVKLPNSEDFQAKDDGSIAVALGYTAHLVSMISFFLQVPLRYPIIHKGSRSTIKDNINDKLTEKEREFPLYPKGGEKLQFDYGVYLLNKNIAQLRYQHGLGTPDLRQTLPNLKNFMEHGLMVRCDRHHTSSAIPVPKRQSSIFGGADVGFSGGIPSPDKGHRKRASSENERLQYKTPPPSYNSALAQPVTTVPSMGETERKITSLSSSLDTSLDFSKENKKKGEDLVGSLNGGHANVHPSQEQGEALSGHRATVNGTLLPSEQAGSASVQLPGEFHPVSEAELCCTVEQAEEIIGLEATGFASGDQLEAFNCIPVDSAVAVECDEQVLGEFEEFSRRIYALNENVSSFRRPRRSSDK
UniProt Q96RL1: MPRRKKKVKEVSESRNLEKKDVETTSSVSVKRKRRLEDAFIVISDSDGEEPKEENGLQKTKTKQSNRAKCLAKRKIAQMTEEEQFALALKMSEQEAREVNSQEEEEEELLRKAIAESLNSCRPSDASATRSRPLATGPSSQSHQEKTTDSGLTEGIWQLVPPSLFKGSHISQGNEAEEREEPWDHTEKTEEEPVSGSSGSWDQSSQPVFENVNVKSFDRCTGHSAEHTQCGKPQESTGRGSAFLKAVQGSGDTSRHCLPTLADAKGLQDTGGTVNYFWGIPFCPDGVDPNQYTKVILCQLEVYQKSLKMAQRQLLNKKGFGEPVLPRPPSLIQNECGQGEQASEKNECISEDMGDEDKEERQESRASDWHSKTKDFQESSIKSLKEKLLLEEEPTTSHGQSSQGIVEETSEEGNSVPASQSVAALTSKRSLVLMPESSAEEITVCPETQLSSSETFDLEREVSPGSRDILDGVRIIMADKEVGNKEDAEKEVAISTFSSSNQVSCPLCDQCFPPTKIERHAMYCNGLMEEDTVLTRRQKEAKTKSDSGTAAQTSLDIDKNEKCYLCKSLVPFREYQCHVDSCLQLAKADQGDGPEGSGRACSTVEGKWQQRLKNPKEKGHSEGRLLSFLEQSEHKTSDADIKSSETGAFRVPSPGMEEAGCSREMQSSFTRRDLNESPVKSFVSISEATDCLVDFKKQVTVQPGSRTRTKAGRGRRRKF
UniProt P11172: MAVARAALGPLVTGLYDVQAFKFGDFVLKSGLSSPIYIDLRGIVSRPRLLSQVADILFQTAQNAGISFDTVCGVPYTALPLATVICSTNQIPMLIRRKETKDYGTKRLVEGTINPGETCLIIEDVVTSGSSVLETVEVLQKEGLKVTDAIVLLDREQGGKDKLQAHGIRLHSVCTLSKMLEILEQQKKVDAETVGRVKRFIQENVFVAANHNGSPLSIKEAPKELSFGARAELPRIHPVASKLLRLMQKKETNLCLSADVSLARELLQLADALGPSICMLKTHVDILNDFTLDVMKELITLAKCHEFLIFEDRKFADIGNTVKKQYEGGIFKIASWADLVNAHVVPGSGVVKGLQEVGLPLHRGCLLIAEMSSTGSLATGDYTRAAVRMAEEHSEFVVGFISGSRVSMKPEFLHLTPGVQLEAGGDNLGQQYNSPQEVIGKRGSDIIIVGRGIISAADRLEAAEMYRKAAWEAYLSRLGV
UniProt Q9BZL1: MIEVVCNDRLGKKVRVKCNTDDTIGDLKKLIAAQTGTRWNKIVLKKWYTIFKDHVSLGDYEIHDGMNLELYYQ
UniProt P61758, whole entry, looked up: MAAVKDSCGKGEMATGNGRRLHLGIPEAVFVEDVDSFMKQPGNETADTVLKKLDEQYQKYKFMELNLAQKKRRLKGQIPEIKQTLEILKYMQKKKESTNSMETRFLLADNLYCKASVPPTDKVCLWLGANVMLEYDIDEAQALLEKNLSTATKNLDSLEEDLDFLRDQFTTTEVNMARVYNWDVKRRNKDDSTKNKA
UniProt P50552: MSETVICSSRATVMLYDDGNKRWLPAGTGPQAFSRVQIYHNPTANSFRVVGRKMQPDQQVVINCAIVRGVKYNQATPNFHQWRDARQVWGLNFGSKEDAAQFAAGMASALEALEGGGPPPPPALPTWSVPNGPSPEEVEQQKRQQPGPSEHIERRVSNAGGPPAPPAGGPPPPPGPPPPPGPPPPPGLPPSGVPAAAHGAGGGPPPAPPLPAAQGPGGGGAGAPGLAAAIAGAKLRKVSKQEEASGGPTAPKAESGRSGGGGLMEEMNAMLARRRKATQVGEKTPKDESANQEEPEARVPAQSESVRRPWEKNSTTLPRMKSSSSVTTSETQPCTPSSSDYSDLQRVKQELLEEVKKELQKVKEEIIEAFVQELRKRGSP
UniProt Q8IX04: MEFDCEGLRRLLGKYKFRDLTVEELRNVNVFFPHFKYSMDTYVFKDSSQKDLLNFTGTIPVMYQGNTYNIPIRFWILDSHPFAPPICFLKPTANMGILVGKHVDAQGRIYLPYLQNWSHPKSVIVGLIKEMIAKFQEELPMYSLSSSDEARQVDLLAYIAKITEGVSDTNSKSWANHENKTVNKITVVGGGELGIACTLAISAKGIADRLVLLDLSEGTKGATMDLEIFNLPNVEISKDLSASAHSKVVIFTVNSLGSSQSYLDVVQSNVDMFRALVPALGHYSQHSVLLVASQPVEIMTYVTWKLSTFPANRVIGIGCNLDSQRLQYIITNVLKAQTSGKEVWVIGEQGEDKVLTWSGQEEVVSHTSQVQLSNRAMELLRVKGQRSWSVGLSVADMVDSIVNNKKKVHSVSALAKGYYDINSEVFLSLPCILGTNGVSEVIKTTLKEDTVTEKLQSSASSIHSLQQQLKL

The targets below were run with C[C@@H](Oc1cc(-c2cnn(C3CCNCC3)c2)cnc1N)c1c(Cl)ccc(F)c1Cl [crizotinib] (assay: log2 fold change, soluble protein after heating vs DMSO (PISA); higher = thermal stabilisation; K562 cells, 10 uM, 30 min; active = over 0.2 and 3.5 SD of the protein, either way, in both replicates (recomputed)).
Outline: (§1)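 Aliquots of K562 cells (2×10^6 cells/mL) treated with 10 μM compound for 30 min were heated for 3 min over 48°C-58°C. After pooling and extraction in PBS with 0.5% NP-40 at 4°C, soluble protein from a 21,000xg, 90 min spin was quantified by TMTpro 16plex LC-MS/MS with channel sums equalised. Thermal stability is expressed against control samples, from duplicates, as a log2 fold change.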

log2 fold change, inactive:
UBXN7 (UniProt O94888) 0.004
URGCP (UniProt Q8TCY9) -0.032
UBXN4 (UniProt Q92575) 0.017
VANGL1 (UniProt Q8TAA9) -0.01
UCK1 (UniProt Q9HA47) 0.007
UGP2 (UniProt Q16851) 0.028
UQCRC1 (UniProt P31930) 0.076
VAPA isoform 2 (UniProt Q9P0L0) 0.037
UBQLN4 (UniProt Q9NRR5) 0.046
VAMP4 (UniProt O75379) -0.142
VAPB (UniProt O95292) 0.069
UVRAG (UniProt Q9P2Y5) -0.015
UQCRB (UniProt P14927) 0.097
VCL (UniProt P18206) 0.022
UIMC1 (UniProt Q96RL1) 0.082
UBR5 (UniProt O95071) 0.017
USP5 (UniProt P45974) 0.035
UQCRFS1 (UniProt P47985) 0.064
UMPS (UniProt P11172) 0.015
UQCRC2 (UniProt P22695) 0.054
UBQLN2 (UniProt Q9UHD9) 0.061
UQCC1 (UniProt Q9NVA1) -0.023
VAT1 (UniProt Q99536) 0.05
UBL5 (UniProt Q9BZL1) -0.041
VBP1 (UniProt P61758) 0.066
USP39 (UniProt Q53GS9) 0.013
VAMP2 (UniProt P63027) 0.071
UFC1 (UniProt Q9Y3C8) 0.146
UQCRH (UniProt P07919) 0.025
USP10 isoform 2 (UniProt Q14694) 0.01
UCHL3 (UniProt P15374) 0.041
VASP (UniProt P50552) -0.158
UEVLD (UniProt Q8IX04) -0.062
UPF1 (UniProt Q92900) 0.046
UNC45A (UniProt Q9H3U1) -0.104
USP8 (UniProt P40818) -0.2
UNC13D isoform 3 (UniProt Q70J99) -0.073
UBXN1 (UniProt Q04323) 0.055

The targets below were run with C[C@@H]1COCCN1C2=NC(=NC(=C2)C3(CC3)S(=O)(=O)C)C4=C5C=CNC5=CC=C4 in the same assay as above.
Outline: as §1

log2 fold change, inactive:
UBXN7 (UniProt O94888) 0.049
URGCP (UniProt Q8TCY9) 0.112
UBXN4 (UniProt Q92575) 0.042
VANGL1 (UniProt Q8TAA9) -0.084
UCK1 (UniProt Q9HA47) -0.237
UGP2 (UniProt Q16851) 0.026
UQCRC1 (UniProt P31930) 0.046
VAPA isoform 2 (UniProt Q9P0L0) -0.062
UBQLN4 (UniProt Q9NRR5) 0.056
VAMP4 (UniProt O75379) -0.189
VAPB (UniProt O95292) 0.036
UVRAG (UniProt Q9P2Y5) 0.039
UQCRB (UniProt P14927) 0.051
VCL (UniProt P18206) 0.004
UIMC1 (UniProt Q96RL1) -0.119
UBR5 (UniProt O95071) -0.018
USP5 (UniProt P45974) 0.012
UQCRFS1 (UniProt P47985) 0.059
UMPS (UniProt P11172) 0.041
UQCRC2 (UniProt P22695) 0.053
UBQLN2 (UniProt Q9UHD9) 0.127
UQCC1 (UniProt Q9NVA1) -0.019
VAT1 (UniProt Q99536) 0.019
UBL5 (UniProt Q9BZL1) 0.022
VBP1 (UniProt P61758) -0.004
USP39 (UniProt Q53GS9) -0.088
VAMP2 (UniProt P63027) 0.094
UFC1 (UniProt Q9Y3C8) 0.067
UQCRH (UniProt P07919) 0.05
USP10 isoform 2 (UniProt Q14694) -0.119
UCHL3 (UniProt P15374) 0.174
VASP (UniProt P50552) -0.011
UEVLD (UniProt Q8IX04) -0.179
UPF1 (UniProt Q92900) -0.03
UNC45A (UniProt Q9H3U1) -0.004
USP8 (UniProt P40818) -0.08
UNC13D isoform 3 (UniProt Q70J99) -0.21
UBXN1 (UniProt Q04323) 0.029
